Test results from publication doi:10.1101/2021.10.18.464838.
These are yes or no findings as the source states them, for the method shown. Some binding calls cover weakened binding; strength is not graded here.

Protein sequences, listed by entry. Tags and fused reporters are not part of them. Lines headed by an entry give the natural chain unless they say otherwise; changes in a name come on top.
UniProt Q9UDY4: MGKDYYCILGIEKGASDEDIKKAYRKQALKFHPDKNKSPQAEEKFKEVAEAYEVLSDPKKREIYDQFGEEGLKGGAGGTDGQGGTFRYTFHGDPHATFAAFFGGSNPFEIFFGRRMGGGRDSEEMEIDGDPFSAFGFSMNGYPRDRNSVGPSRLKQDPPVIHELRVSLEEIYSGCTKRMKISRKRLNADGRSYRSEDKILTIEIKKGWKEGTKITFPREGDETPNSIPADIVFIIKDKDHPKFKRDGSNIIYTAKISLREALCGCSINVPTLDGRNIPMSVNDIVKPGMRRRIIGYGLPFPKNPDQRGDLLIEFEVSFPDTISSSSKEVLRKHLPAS
UniProt P0DMV8: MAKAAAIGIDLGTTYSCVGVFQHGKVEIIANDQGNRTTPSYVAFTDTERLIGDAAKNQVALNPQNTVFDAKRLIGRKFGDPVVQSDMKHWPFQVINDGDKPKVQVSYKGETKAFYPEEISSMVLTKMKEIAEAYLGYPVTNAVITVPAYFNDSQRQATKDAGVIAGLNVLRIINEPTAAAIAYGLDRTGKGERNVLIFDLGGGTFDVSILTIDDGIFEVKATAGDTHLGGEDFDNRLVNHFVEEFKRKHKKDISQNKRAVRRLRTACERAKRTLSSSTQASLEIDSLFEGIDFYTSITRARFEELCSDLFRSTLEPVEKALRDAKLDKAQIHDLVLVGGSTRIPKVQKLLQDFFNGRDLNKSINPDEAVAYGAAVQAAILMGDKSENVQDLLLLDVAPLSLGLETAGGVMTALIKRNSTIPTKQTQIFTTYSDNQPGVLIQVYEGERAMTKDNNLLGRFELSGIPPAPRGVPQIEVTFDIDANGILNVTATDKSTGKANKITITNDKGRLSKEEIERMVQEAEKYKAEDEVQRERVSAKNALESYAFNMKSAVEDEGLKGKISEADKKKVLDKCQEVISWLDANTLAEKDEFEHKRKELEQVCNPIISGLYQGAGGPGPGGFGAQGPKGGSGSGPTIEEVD

Target: DnaJB4 (recombinant, human, full length, wild type) (human) (UniProt Q9UDY4)
Assay: fluorescence polarisation

Substance | binding
Hsp72 C-terminal peptide truncated by P10 (9-mer) (from UniProt P0DMV8 633-641) | binds
Hsp72 C-terminal peptide truncated by P10 and P9 (8-mer) (from UniProt P0DMV8 634-641) | binds
